# In patent US20250352579A1 (HEBEI SENLANG BIOTECHNOLOGY, published 2025):
# T1: CD7 on cells (K562-CD7 positive cells; KG-1a-GFP-Luc; CCRF-CEM) (UniProt P09564 26-240, limits assumed)
# T1 sequence (looked up): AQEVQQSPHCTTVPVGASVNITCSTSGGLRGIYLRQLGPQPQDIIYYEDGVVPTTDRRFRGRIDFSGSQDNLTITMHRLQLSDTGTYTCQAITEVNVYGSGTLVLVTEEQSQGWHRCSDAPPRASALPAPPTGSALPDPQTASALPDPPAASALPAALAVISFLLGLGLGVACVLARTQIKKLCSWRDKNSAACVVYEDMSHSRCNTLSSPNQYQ
# B1: VHH13 single VHH CAR (other)
# chain: QVQLQESGGGLVQAGGSLNLSCTVYGFTADDYAVGWFRQAPGKGRQGISCLSRKDGSKYVADPVLGRATISSDNTKNTVRLTLSALKPDDTAVYYCAAHRFATFCGTRDYEYDYWGQGTQVTVSSTTPAPRPPTPAPTIASQPLSLRPEACRPAAGGAVHTRGLDFACDIYIWAPLAGTCGVLLLSLVITLYCKRGRKKLLYIFKQPFMRPVQTTQEEDGCSCRFPEEEEGGCELRVKFSRSADAPAYKQGQNQLYNELNLGRREEYDVLDKRRGRDPEMGGKPRRKNPQEGLYNELQKDKMAEAYSEIGMKGERRRGKGHDGLYQGLSTATKDTYDALHMQALPPR
# Molecular target: T1, CD7 on cells (K562-CD7 positive cells; …)
# Experiment: cell-based or functional assay
binder,measurement,value
B1,"killing ratio, CAR-T cells on KG-1a-GFP-Luc, E:T=3:1, 4 h, luciferase",1.18%
